# Assay results reported in PMC12040169 (PLOS Biology, 2025).
# Some of the results follow.
# Tested on: T1, CTL2-GFP (C. trachomatis L2/434/Bu, GFP-expressing)
# T1 construct: L2/434/Bu, GFP-expressing
# Set-up: species or system HeLa; Intracellular C. trachomatis growth in HeLa cells, bulk GFP fluorescence relative to DMSO
# Details: bulk GFP, single well; 28.5 h, 10 µM; inhibitor
row,SMILES,% of control remaining
1,Cc1csc(NC(=O)CSc2nnc3[nH]c(=O)cc(C)n23)n1 [CBK294413],148.522%
2,O=C1NC(=O)C(CCCCN2CCC[C@@H]2CN2CCCC2)N1 (stereo partly shown) [CBK149110],106.443%
3,O=C(O)CCNC1CC(=O)N(Cc2ccccc2)C1=O (stereo not shown) [CBK287246],129.2%
4,CC(C)C(=O)Nc1ccc2c(-c3ccc4c(c3)CCO4)ccnc2n1 [CBK073672],158.3%
5,O=C(O)C1Cc2c([nH]c3ccccc23)C(c2cc(Br)ccc2O)N1 (stereo not shown) [CBK260946],111.731%
6,COc1cc(NC(=O)N2CCCCC2CO)cc(OC)c1OC (stereo not shown) [CBK155986],78.4722%
7,Cc1csc(NC(=O)c2cccc(S(=O)(=O)NCC3CCCO3)c2)n1 (stereo not shown) [CBK305017],114.447%
8,CN(CC(=O)N1CCC(Cc2ccccc2)CC1)S(=O)(=O)c1ccc2ccccc2c1 [CBK266931],145.205%
9,CCN(CC)C(=O)c1sc2ccccc2c1Cl [CBK067853],93.3446%
10,C/C(=N/O)c1ccc(OCCCOc2ccc(/C(C)=N/O)cc2)cc1 [CBK262075],104.153%
11,COc1ccc(-c2ccccc2)cc1NS(=O)(=O)c1ccc2c(c1)CCC(=O)N2 [CBK286368],96.3887%
12,CC(C)(C)C(=O)N1CCC(n2nc(-c3cccs3)oc2=O)CC1 [CBK282423],113.756%
13,Brc1ccc2[nH]c3c(c2c1)CCNC31CCN(CCOc2ccccc2)C1 (stereo not shown) [CBK083578],81.0254%
14,CC(C)NC(=O)N1CCC[C@@H](O)[C@H](NC(=O)c2ccc(OCc3ccccc3)cc2)C1 [CBK289063],101.864%
15,O=c1scnn1Cc1nc(-c2ccsc2)no1 [CBK306438],126.311%
16,Clc1cccc(Cl)c1CN(Cc1ccccc1)c1ncnc2[nH]cnc12 [CBK266571],118.273%
17,COc1ccc(C(NC(=O)C2CCN(C(=O)OC(C)C)CC2)c2ccccc2C)cn1 (stereo not shown) [CBK059704],93.1739%
18,CC(C)[C@H]1CN(Cc2cc(C#N)n(C)c2)C[C@@H]1NC(=O)C1CCC1 [CBK306832],87.0775%
19,O=C(O)C1CCN(c2ncnc3scc(-c4ccccc4)c23)CC1 [CBK076784],105.572%
20,CNS(=O)(=O)c1cccc2c1CCN(C(=O)NC1CCOC1)C2 (stereo not shown) [CBK306172],98.9425%
21,CN(C)CCN1CCN(c2cncc(-c3cccnc3)n2)CC1 [CBK065416],132.665%
22,Cc1ccc(C2=NN(C(=O)CNc3cc(F)cc(F)c3)C(c3ccco3)C2)cc1 (stereo not shown) [CBK297922],115.165%
23,O=C(/C=C\c1ccc(Cl)cc1Cl)N1CCN(Cc2ccc3c(c2)OCO3)CC1 [CBK074371],54.6233%
24,O=C(c1ccccc1)N1C[C@H](c2ccsc2)[C@H]2CN(Cc3ccsc3)CC[C@H]21 [CBK285604],77.2973%
25,O=C(O)c1ccc(-c2ccc(/C=C/c3[nH]c(=O)[nH]c(=O)c3[N+](=O)[O-])o2)cc1 [CBK268055],121.251%

row,SMILES,% of control remaining
1,CC(=O)Nc1cccc(C(=O)OCC(=O)c2cccs2)c1 [CBK306040],85.3096%
2,COc1ccc(OCCCn2ccn(C(=O)CCCOc3ccc(Cl)cc3)c2=O)cc1 [CBK106662],137.216%
3,CC1(C)CC(=O)C(=CNCC(N)=O)C(=O)C1 [CBK262520],100%
4,COc1ccc(C(=O)N2CCC3(CCN(Cc4cc(OC)c(OC)c(OC)c4)C3)C2)cc1OC (stereo not shown) [CBK132149],127.86%
5,CCCn1ccnc1CN1CCCC(CC2CC2)(C(=O)O)C1 (stereo not shown) [CBK307205],80.5868%
6,O=C(COc1cccc2ccccc12)NNC(=O)Cc1ccc(Cl)cc1 [CBK262988],98.2607%
7,Cc1nc[nH]c1CN(CCCn1ccnc1)CC1CC=CCC1 (stereo not shown) [CBK283218],130.944%
8,COC(=O)c1ccc(Nc2cccc(-c3cccc(N)c3)n2)cc1OC [CBK037619],105.072%
9,O=C(O)c1cc(S(=O)(=O)NCc2ccccc2)ccc1Br [CBK261768],107.317%
10,CCCc1[nH]nc(O)c1Cc1cccc(C)c1 [CBK075035],100.348%
11,Fc1ccc(-c2cn3ccnc3c(Nc3cccc(OC(F)(F)C(F)F)c3)n2)cc1Cl [CBK037265],132.835%
12,Cc1cnc(C)c(N2CCN(c3cc([C@H]4C[C@@H](N)C4)ncn3)CC2)n1 [CBK307118],126.183%
13,Cc1cc(CNC(=O)Cn2nc(C)c(C)c2C)on1 [CBK281487],90.8839%
14,CC(=O)N1CCC[C@H]2NC(=O)CNC(=O)C3(C/C=C/C[C@H]21)CCN(C(=O)C1CCC1)CC3 [CBK292177],101.151%
15,OCCN1CSC(=S)N(CCc2ccc(Cl)cc2)C1 [CBK015713],120.219%
16,Cn1c(SCc2ccc([N+](=O)[O-])cc2)nnc1-c1ccc(NC(=O)c2ccccc2Cl)cc1 [CBK265001],122.288%
17,O=C(O)c1ccccc1S(=O)(=O)CC(=O)N1CCCCC1 [CBK287180],91.1111%
18,Cc1ccc(C2CCCN2C(=O)Cn2cccc(C(=O)NCc3ccccc3)c2=O)cc1C (stereo not shown) [CBK286074],110.527%
19,c1ccc2c(CCN3CCC(Oc4nccnc4OC4CCCCC4)CC3)c[nH]c2c1 [CBK082877T],110.372%
20,CC(C)(C)CC(=O)O/N=C(\N)c1ccccn1 [CBK265779],120.031%
21,Cc1cc2ccccc2n2c(=O)n(CC(=O)N3CCCCC3C)nc12 (stereo not shown) [CBK283882],119.386%
22,COc1ccc(-c2cc(C(=O)Nc3ccccn3)cnc2-c2ccccc2)cn1 [CBK037519],139.468%
23,COc1ccc2c(c1)C1(CC(=O)N(Cc3ccccc3)C1=O)C(=O)N2CCn1cnc2c1c(=O)n(C)c(=O)n2C (stereo not shown) [CBK075478],97.4105%
24,COCCNc1cccc(Cn2c(=O)n(C)c3c2c(=O)nc(OC)n3C)c1 [CBK022052],107.246%
